From article PMC12331172
Results are given in words; binding and its absence hold for the method and conditions named. In cells and extracts the contact can be indirect. Here binding means that the protein was enriched with, or labelled near, the bait; the list need not be complete. No binding means not detected with the bait. Where a sequence is shown, tags or fusion partners need not be part of it.

Protein sequences, listed by entry. Tags and fused reporters are not part of them.
UniProt P08736: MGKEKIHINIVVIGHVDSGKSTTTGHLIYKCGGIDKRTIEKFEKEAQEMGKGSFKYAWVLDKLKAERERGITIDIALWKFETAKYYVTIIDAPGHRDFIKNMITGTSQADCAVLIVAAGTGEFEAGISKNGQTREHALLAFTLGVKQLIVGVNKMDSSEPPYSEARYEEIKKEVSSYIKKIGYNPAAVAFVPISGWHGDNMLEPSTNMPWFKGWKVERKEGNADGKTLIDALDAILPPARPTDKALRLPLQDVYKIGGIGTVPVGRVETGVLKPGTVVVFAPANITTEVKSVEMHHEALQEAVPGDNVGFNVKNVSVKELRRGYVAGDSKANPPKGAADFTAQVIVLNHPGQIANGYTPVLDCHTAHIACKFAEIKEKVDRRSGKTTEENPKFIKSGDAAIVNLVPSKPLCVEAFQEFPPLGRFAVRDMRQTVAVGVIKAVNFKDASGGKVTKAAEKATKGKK

T1: TAP-Trus fusion protein (Toys are us, Drosophila orthologue of PDCD2L) (Drosophila melanogaster) (UniProt Q9VG62)
T1 sequence: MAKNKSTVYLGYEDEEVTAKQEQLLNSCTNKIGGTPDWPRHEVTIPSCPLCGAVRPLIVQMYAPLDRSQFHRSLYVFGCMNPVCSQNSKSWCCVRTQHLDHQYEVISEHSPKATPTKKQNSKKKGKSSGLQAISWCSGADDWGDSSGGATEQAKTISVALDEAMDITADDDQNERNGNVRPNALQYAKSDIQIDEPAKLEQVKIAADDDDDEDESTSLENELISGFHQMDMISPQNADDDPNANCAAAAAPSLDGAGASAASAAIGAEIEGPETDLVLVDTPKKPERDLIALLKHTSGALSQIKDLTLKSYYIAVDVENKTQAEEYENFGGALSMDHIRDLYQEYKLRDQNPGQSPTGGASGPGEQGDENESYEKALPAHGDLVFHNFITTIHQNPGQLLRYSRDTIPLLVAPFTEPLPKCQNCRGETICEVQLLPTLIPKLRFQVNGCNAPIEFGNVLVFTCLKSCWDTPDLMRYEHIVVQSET


biological target: T1, TAP-Trus fusion protein (Toys are us, Drosophila orthologue of PDCD2L) (Drosophila melanogaster); experiment: affinity purification with mass spectrometry; TAP-Trus stably expressed in Drosophila Kc cells (one liter); tandem affinity purification on IgG-Sepharose and Calmodulin-Sepharose beads; eluate TCA-precipitated, SDS-PAGE, Coomassie bands excised, trypsinized, MALDI mass spectrometry

binding	Molecule
binds	String of pearls (Sop), protein S2 of the 40S ribosomal subunit (RpS2) (from UniProt P31009 1-267)
binds	eukaryotic translation Elongation Factor 1 alpha 1 (eEF1α1) (from UniProt P08736 1-463)
no binding	Zfrp8 (Zinc finger protein RP-8), Drosophila orthologue of PDCD2 (protein, UniProt Q9W1A3 1-347) MEIDLGFAEKSDNGAWLSNRYFPSKLGGQPAWLELEALPPTSQLQCSKCRAPKSFLAQLYAPFEDEYNFHRSIYVFLCRNSDCQEAQNASNFTVLRSQLPRKNKFFSEEEPSDVGQPLPAVPCLKKLCAACGCHAPHACSKCKAIHYCSPEHQRAHWPQHKPNCGAPEVATEKPLTQIVFPEFEIVMDSNPVESGEEDKDDEARLAEFQELESSGKTGDLSNVSEAEMDKYFGNSAAADDKTFRQFKKQTAAEPDQIVRYKRGGQPLWITNTVKTVEDQLNKLPNCIACGGERQFEFQIMPQALTLLEDENLDWGVLAVYTCAKSCPIDGYVEELLIKQDIVAEDQS
